From PMC4144951
Substitutions are numbered along the chain they refer to. Results are given in words; binding and its absence hold for the method and conditions named. Some binding calls cover weakened binding; strength is not graded here.

B1: HSPB6 Δ31–40 (protein, UniProt O14558)
chain: MEIPVPVQPSWLRRASAPLPGLSAPGRLFDELAALCPTTLAPYYLRAPSVALPVAQVPTDPGHFSVLLDVKHFSPEEIAVKVVGEHVEVHARHEERPDEHGFVAREFHRRYRLPPGVDPAAVTSALSPEGVLSIQAAPASAQAPPPAAAK
B2: human HSPB6, wild type, full length (protein, UniProt O14558 1-160)
chain: MEIPVPVQPSWLRRASAPLPGLSAPGRLFDQRFGEGLLEAELAALCPTTLAPYYLRAPSVALPVAQVPTDPGHFSVLLDVKHFSPEEIAVKVVGEHVEVHARHEERPDEHGFVAREFHRRYRLPPGVDPAAVTSALSPEGVLSIQAAPASAQAPPPAAAK
B3: HSPB6 ΔN11 (domain or fragment, UniProt O14558 12-160)
chain: LRRASAPLPGLSAPGRLFDQRFGEGLLEAELAALCPTTLAPYYLRAPSVALPVAQVPTDPGHFSVLLDVKHFSPEEIAVKVVGEHVEVHARHEERPDEHGFVAREFHRRYRLPPGVDPAAVTSALSPEGVLSIQAAPASAQAPPPAAAK
B4: HSPB6 Δ41–50 (protein, UniProt O14558)
chain: B1 chain with E31Q, L32R, A33F, A34G, L35E, C36G, P37L, T38L, T39E, L40A
B5: HSPB6 Δ21–30 (protein, UniProt O14558)
chain: B1 chain with G21Q, L22R, S23F, A24G, P25E, R27L, F29E, D30A
B6: HSPB6 Δ11–20 (protein, UniProt O14558)
chain: MEIPVPVQPSGLSAPGRLFDQRFGEGLLEAELAALCPTTLAPYYLRAPSVALPVAQVPTDPGHFSVLLDVKHFSPEEIAVKVVGEHVEVHARHEERPDEHGFVAREFHRRYRLPPGVDPAAVTSALSPEGVLSIQAAPASAQAPPPAAAK
B7: HSPB6 Δ51–60 (protein, UniProt O14558)
chain: MEIPVPVQPSWLRRASAPLPGLSAPGRLFDQRFGEGLLEAELAALCPTTLALPVAQVPTDPGHFSVLLDVKHFSPEEIAVKVVGEHVEVHARHEERPDEHGFVAREFHRRYRLPPGVDPAAVTSALSPEGVLSIQAAPASAQAPPPAAAK
B8: HSPB6 Δ61–70 (protein, UniProt O14558)
chain: B7 chain with L52P, P53Y, V54Y, A55L, Q56R, V57A, T59S, D60V

biological target: human recombinant insulin (human) (UniProt P01308); assay: dynamic light scattering; 0.25 mg/ml insulin with sHSP at insulin:sHSP 1:0.2 and 1:0.1, 10 mM DTT, 37°C, 90 min; 50 mM sodium phosphate, 100 mM NaCl, pH 7.5; both purified

binding, binds:
B1
B2

biological target: hen egg white lysozyme (hen) (UniProt P00698); assay: co-aggregation checked by SDS-PAGE; results not shown; DTT-reduced HEWL (0.25 mg/ml) incubated with sHSP as in the chaperone assay; both purified

binding, binds:
B3
B1
B4
B5
B6
B7
B8
B2
